Results published in publication PMC9873567.
No constants are given. Whether binding was seen depends on the method and setting. For some of these results: In cells and extracts the contact can be indirect. Some entries that bind do so weakly or less than the wild type. Where a sequence is shown, tags or fusion partners need not be part of it. Values belong to the binder of their own block, whether it stands above or below them.

What was measured:
[1] = target: T1, BD-PUB30 (full length PUB30 as bait) (Arabidopsis thaliana) (UniProt Q058P4); assay: two-hybrid; yeast strain AH109; bait on the DNA-binding domain (pGBKT7), prey on the activation domain (pGADT7); growth on SD (-Trp, -Leu, -His) with 1 mM 3-AT, tenfold serial dilutions
T1 sequence: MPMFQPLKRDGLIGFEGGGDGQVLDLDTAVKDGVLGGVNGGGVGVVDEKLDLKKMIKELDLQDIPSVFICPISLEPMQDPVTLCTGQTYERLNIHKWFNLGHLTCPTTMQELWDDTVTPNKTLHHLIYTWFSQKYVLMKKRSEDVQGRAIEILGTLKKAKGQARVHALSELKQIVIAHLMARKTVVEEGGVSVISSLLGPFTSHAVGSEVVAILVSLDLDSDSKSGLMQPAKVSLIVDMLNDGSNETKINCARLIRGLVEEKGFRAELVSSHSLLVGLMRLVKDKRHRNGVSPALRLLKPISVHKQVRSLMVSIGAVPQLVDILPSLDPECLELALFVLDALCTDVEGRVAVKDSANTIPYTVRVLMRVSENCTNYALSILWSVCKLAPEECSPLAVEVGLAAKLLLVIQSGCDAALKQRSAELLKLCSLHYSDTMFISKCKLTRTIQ

[2] = target: T2, BD-PUB31 (full length PUB31 as bait) (Arabidopsis thaliana) (UniProt Q9FHN9); assay: as above
T2 sequence: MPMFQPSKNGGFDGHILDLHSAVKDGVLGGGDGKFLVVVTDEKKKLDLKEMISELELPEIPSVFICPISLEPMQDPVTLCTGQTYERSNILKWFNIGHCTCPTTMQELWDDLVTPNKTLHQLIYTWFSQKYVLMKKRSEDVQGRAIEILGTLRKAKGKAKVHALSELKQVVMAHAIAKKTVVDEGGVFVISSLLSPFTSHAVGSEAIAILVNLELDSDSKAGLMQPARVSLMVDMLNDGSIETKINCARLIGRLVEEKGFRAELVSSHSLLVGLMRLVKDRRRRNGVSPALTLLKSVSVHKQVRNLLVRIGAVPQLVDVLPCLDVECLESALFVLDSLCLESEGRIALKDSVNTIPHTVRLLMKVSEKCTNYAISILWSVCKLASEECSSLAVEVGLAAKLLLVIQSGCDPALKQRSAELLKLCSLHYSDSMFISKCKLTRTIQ

[3] = target: T3, PUB30_(T155D)-MYC (Arabidopsis thaliana) (UniProt Q058P4); assay: co-IP; Arabidopsis protoplasts (WT or serk1 bak1-5) transfected with ERECTA-HA and PUB30/31-MYC (WT or phosphor-mutated); 2 uM MG132 1 h, 5 uM EPFL6 1 h; IP anti-MYC, blot anti-HA
T3 sequence: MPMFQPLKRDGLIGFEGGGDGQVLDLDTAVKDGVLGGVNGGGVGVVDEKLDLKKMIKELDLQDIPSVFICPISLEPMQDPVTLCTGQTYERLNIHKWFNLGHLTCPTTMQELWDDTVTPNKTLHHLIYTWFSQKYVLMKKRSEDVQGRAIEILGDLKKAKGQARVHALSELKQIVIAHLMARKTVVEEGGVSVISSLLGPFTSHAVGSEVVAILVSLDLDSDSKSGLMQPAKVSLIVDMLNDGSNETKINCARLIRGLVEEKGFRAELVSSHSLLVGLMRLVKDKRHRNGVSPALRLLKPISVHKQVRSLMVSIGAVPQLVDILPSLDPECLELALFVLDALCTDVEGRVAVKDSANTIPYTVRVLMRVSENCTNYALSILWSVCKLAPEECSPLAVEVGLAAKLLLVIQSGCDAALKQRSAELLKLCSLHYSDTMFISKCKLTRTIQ

[4] = target: T4, PUB31-MYC (Arabidopsis thaliana) (UniProt Q9FHN9); assay: as above
T4 sequence: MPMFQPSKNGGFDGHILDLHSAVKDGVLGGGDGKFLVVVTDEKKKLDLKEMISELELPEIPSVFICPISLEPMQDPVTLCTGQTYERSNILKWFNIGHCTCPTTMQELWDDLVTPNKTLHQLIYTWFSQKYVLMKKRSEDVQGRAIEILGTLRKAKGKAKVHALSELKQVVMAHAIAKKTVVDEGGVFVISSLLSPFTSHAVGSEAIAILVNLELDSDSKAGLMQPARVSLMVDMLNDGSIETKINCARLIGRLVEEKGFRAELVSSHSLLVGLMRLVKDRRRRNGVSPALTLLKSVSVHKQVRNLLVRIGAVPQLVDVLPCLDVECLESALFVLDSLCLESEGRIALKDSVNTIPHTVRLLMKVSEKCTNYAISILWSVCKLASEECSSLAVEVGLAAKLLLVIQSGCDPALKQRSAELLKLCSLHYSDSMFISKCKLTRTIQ

[5] = target: T5, PUB30-MYC (Arabidopsis thaliana) (UniProt Q058P4); assay: as above
T5 sequence: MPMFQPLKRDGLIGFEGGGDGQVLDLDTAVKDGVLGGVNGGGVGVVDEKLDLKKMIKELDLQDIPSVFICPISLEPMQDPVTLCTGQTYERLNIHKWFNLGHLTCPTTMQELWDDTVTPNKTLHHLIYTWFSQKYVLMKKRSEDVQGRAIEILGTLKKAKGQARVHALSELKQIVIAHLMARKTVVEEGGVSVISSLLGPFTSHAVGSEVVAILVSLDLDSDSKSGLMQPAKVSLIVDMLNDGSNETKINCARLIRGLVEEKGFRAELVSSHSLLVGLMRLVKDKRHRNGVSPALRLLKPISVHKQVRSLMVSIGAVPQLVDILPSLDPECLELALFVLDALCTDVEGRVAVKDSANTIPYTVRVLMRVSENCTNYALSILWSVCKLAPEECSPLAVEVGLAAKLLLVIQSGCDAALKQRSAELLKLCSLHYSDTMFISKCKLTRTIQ

[6] = target: T6, PUB31_(T151D)-MYC (Arabidopsis thaliana) (UniProt Q9FHN9); assay: as above
T6 sequence: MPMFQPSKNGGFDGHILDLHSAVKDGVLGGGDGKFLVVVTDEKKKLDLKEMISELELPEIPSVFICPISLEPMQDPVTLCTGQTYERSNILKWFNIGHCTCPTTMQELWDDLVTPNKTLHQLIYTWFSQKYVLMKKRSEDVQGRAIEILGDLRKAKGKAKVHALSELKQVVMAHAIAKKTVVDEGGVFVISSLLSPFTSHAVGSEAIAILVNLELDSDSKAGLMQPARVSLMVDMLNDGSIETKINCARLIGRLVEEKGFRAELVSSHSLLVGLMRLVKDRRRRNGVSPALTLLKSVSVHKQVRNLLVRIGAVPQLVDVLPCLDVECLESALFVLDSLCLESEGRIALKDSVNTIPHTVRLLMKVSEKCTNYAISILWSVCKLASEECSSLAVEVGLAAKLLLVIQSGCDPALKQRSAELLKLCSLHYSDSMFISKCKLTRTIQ

[7] = target: T7, PUB31-FLAG (Arabidopsis thaliana) (UniProt Q9FHN9); assay: co-IP; transgenic Arabidopsis seedlings with PUB30-FLAG or PUB31-FLAG and ERECTA-YFP; MG132, then buffer only, MEPF2 (2.5 uM) or MEPFL6 (2.5 uM) for 3 h; solubilized microsomal fraction; IP anti-FLAG, blot anti-GFP
T7 sequence: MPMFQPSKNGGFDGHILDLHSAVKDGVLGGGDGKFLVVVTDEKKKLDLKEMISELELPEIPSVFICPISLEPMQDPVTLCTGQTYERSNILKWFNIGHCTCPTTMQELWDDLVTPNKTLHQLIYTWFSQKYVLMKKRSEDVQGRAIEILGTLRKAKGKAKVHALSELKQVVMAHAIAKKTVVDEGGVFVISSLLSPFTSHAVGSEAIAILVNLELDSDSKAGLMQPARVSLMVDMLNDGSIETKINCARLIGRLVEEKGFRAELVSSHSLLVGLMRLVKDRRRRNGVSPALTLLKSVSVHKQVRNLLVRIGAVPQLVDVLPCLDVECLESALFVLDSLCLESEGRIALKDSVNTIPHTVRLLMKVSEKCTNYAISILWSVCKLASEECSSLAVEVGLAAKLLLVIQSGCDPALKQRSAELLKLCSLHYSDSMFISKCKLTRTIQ

[8] = target: T8, PUB30-FLAG (Arabidopsis thaliana) (UniProt Q058P4); assay: as above
T8 sequence: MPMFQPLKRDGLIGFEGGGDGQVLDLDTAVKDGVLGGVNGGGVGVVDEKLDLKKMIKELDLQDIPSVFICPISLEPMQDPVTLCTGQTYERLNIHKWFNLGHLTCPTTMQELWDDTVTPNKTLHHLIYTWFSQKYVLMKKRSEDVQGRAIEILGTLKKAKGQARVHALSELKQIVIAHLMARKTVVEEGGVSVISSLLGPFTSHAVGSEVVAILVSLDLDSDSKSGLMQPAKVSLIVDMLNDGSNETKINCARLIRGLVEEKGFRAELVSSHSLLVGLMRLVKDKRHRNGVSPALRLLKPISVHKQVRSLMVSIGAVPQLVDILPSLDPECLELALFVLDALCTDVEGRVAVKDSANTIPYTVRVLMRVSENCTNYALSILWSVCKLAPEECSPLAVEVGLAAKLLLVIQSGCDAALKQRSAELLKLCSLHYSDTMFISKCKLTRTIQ

- binding [1]: no binding
- binding [2]: no binding
B1: kinase domain of BSK1 as prey (domain or fragment, UniProt Q944A7 76-331)
chain: DNIVSESGEKAPNLVYKGRLQNRRWIAVKKFTKMAWPEPKQFAEEAWGVGKLRHNRLANLIGYCCDGDERLLVAEFMPNDTLAKHLFHWENQTIEWAMRLRVGYYIAEALDYCSTEGRPLYHDLNAYRVLFDEDGDPRLSCFGLMKNSRDGKSYSTNLAYTPPEYLRNGRVTPESVTYSFGTVLLDLLSGKHIPPSHALDMIRGKNIILLMDSHLEGKFSTEEATVVVELASQCLQYEPRERPNTKDLVATLAPLQ

- binding [1]: no binding
- binding [2]: no binding
B2: kinase domain of YDA as prey (domain or fragment, UniProt Q9CAD5 400-656)
chain: WKKGRLLGMGSFGHVYLGFNSESGEMCAMKEVTLCSDDPKSRESAQQLGQEISVLSRLRHQNIVQYYGSETVDDKLYIYLEYVSGGSIYKLLQEYGQFGENAIRNYTQQILSGLAYLHAKNTVHRDIKGANILVDPHGRVKVADFGMAKHITAQSGPLSFKGSPYWMAPEVIKNSNGSNLAVDIWSLGCTVLEMATTKPPWSQYEGVPAMFKIGNSKELPDIPDHLSEEGKDFVRKCLQRNPANRPTAAQLLDHAFV

- binding [3]: binds
- binding [4]: binds
- binding [5]: binds
- binding [6]: binds
B3: ERECTA-HA (receptor, UniProt Q42371 25-976)
chain: EEGATLLEIKKSFKDVNNVLYDWTTSPSSDYCVWRGVSCENVTFNVVALNLSDLNLDGEISPAIGDLKSLLSIDLRGNRLSGQIPDEIGDCSSLQNLDLSFNELSGDIPFSISKLKQLEQLILKNNQLIGPIPSTLSQIPNLKILDLAQNKLSGEIPRLIYWNEVLQYLGLRGNNLVGNISPDLCQLTGLWYFDVRNNSLTGSIPETIGNCTAFQVLDLSYNQLTGEIPFDIGFLQVATLSLQGNQLSGKIPSVIGLMQALAVLDLSGNLLSGSIPPILGNLTFTEKLYLHSNKLTGSIPPELGNMSKLHYLELNDNHLTGHIPPELGKLTDLFDLNVANNDLEGPIPDHLSSCTNLNSLNVHGNKFSGTIPRAFQKLESMTYLNLSSNNIKGPIPVELSRIGNLDTLDLSNNKINGIIPSSLGDLEHLLKMNLSRNHITGVVPGDFGNLRSIMEIDLSNNDISGPIPEELNQLQNIILLRLENNNLTGNVGSLANCLSLTVLNVSHNNLVGDIPKNNNFSRFSPDSFIGNPGLCGSWLNSPCHDSRRTVRVSISRAAILGIAIGGLVILLMVLIAACRPHNPPPFLDGSLDKPVTYSTPKLVILHMNMALHVYEDIMRMTENLSEKYIIGHGASSTVYKCVLKNCKPVAIKRLYSHNPQSMKQFETELEMLSSIKHRNLVSLQAYSLSHLGSLLFYDYLENGSLWDLLHGPTKKKTLDWDTRLKIAYGAAQGLAYLHHDCSPRIIHRDVKSSNILLDKDLEARLTDFGIAKSLCVSKSHTSTYVMGTIGYIDPEYARTSRLTEKSDVYSYGIVLLELLTRRKAVDDESNLHHLIMSKTGNNEVMEMADPDITSTCKDLGVVKKVFQLALLCTKRQPNDRPTMHQVTRVLGSFMLSEQPPAATDTSATLAGSCYVDEYANLKTPHSVNCSSMSASDAQLFLRFGQVISQNSE

- binding [7]: binds
- binding [8]: binds
B4: ERECTA-YFP (receptor, UniProt Q42371 25-976)
chain: EEGATLLEIKKSFKDVNNVLYDWTTSPSSDYCVWRGVSCENVTFNVVALNLSDLNLDGEISPAIGDLKSLLSIDLRGNRLSGQIPDEIGDCSSLQNLDLSFNELSGDIPFSISKLKQLEQLILKNNQLIGPIPSTLSQIPNLKILDLAQNKLSGEIPRLIYWNEVLQYLGLRGNNLVGNISPDLCQLTGLWYFDVRNNSLTGSIPETIGNCTAFQVLDLSYNQLTGEIPFDIGFLQVATLSLQGNQLSGKIPSVIGLMQALAVLDLSGNLLSGSIPPILGNLTFTEKLYLHSNKLTGSIPPELGNMSKLHYLELNDNHLTGHIPPELGKLTDLFDLNVANNDLEGPIPDHLSSCTNLNSLNVHGNKFSGTIPRAFQKLESMTYLNLSSNNIKGPIPVELSRIGNLDTLDLSNNKINGIIPSSLGDLEHLLKMNLSRNHITGVVPGDFGNLRSIMEIDLSNNDISGPIPEELNQLQNIILLRLENNNLTGNVGSLANCLSLTVLNVSHNNLVGDIPKNNNFSRFSPDSFIGNPGLCGSWLNSPCHDSRRTVRVSISRAAILGIAIGGLVILLMVLIAACRPHNPPPFLDGSLDKPVTYSTPKLVILHMNMALHVYEDIMRMTENLSEKYIIGHGASSTVYKCVLKNCKPVAIKRLYSHNPQSMKQFETELEMLSSIKHRNLVSLQAYSLSHLGSLLFYDYLENGSLWDLLHGPTKKKTLDWDTRLKIAYGAAQGLAYLHHDCSPRIIHRDVKSSNILLDKDLEARLTDFGIAKSLCVSKSHTSTYVMGTIGYIDPEYARTSRLTEKSDVYSYGIVLLELLTRRKAVDDESNLHHLIMSKTGNNEVMEMADPDITSTCKDLGVVKKVFQLALLCTKRQPNDRPTMHQVTRVLGSFMLSEQPPAATDTSATLAGSCYVDEYANLKTPHSVNCSSMSASDAQLFLRFGQVISQNSE
